Experimental data as given in patent publication US7799768B2, “Polymorphs of 3-O-(3′,3′-dimethylsuccinyl)betulinic acid di-N-methyl-D-glucamine” (priority 2005, dated 2010).
At least one read-out could not be matched to a standard name with certainty.

Assay: relative bioavailability of oral formulations in rats (plasma DSB free acid)
Assay type: in vivo, Sprague Dawley rats
Settings: male rats, single oral 25 mg/kg; for time of Cmax after the dose: 10% hydroxypropyl-β-cyclodextrin solution
Description: The following study was conducted to compare the relative bioavailability of oral formulations prepared with DSB•2NMG Form I and amorphous DSB•2NMG.
Groups of four male Sprague Dawley rats with surgically implanted jugular cannulas were given a single oral 25 mg/kg dose of DSB•2NMG (Form I or amorphous) in one of six formulations: • Group 1: 10% hydroxypropyl-β-cyclodextrin solution of amorphous DSB•2NMG; • Group 2: 10% hydroxypropyl-β-cyclodextrin solution of DSB•2NMG Form I; • Group 3: Suspension of DSB•2NMG Form I in 0.5% carboxymethylcellulose; • Group 4: Solution of DSB•2NMG Form I in 1% ethanol/10% polyethylene glycol 400/89% water; • Group 5: Solution of DSB•2NMG Form I in 10% propylene glycol/90% water; and • Group 6: Solution of DSB•2NMG Form I in water.

| SMILES | time of Cmax after the dose | time of Cmax after the dose (mean) (carboxymethylcellulose, ethanol/PEG 400/water, propylene glycol/water and water formulations) |
| --- | --- | --- |
| C=C(C)[C@@H]1CC[C@]2(C(=O)O)CC[C@]3(C)[C@H](CC[C@@H]4[C@@]5(C)CC[C@H](OC(=O)CC(C)(C)C(=O)O)C(C)(C)[C@@H]5CC[C@]43C)[C@@H]12 [amorphous DSB•2NMG, 3-O-(3′,3′-dimethylsuccinyl)betulinic acid di-N-methyl-D-glucamine] | approximately 2 hours |  |
| C=C(C)[C@@H]1CC[C@]2(C(=O)O)CC[C@]3(C)[C@H](CC[C@@H]4[C@@]5(C)CC[C@H](OC(=O)CC(C)(C)C(=O)O)C(C)(C)[C@@H]5CC[C@]43C)[C@@H]12 [DSB•2NMG Form I, 3-O-(3′,3′-dimethylsuccinyl)betulinic acid di-N-methyl-D-glucamine] | approximately 2 hours | 1.38 h |
